PubChem BioAssay AID1259308 | NCATS | 2017
Shown is a random part of about 59,000 reagents. About 1,510 of them (2.6%) were called active. 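Calls use total luciferase alone and ignore viability, so some active siRNAs may act by altering cell number.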 Unmarked entries are inactive. The numbers tell different reagents against one gene apart.

Aim: 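Knock-downs that increase output of a recombinant reporter protein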 (primary screen)
Cell system: human HEK293 embryonic kidney cells stably expressing firefly luciferase (HEK-CMV-Luc2-Hygro)
Reagents: single siRNA against human genes, 0.8 pmol siRNA per well
Duration: 72 h
Read-out: 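Luciferase light (ONE-Glo) measured on one replicate plate set and viability (CellTiter-Glo) on the other, scaled to a negative control siRNA, with robust z-scores and luciferase per cell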
Direction: total luciferase, z-score and total luciferase, % of control: higher = more reporter protein produced; luciferase per cell, z-score: higher = more reporter output per viable cell; viable cells, % of control: higher = more viable cells
Active means: 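An siRNA counts as active if its total luciferase robust z-score exceeds 3; genes with two or more such siRNAs out of three were retested with fresh siRNAs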
Meaning of the calls: active = raised luciferase; inactive = no rise

target,reagent no.,"total luciferase, z-score","total luciferase, % of control","luciferase per cell, z-score","viable cells, % of control"
CTU2 (GeneID 348180),1,-0.33,75.3,0.428,75.2
CTU2 (GeneID 348180),2,-0.655,68.9,-0.561,89.2
CTU2 (GeneID 348180),3,0.665,95.1,0.074,104
TBCCD1 (GeneID 55171),1,0.4,89.8,-0.279,108
TBCCD1 (GeneID 55171),2,-0.491,72.1,-0.0741,82.2
TBCCD1 (GeneID 55171),3,-0.593,70.1,-1.33,111
SLC7A14 (GeneID 57709),1,-0.282,76.3,-0.539,98.3
SLC7A14 (GeneID 57709),2,1.01,102,1.47,77.5
SLC7A14 (GeneID 57709),3,0.234,86.5,0.901,76.3
SLC7A14 (GeneID 57709),4,-0.799,66,-0.0324,74.4
SLC7A14 (GeneID 57709),5,-0.715,67.7,-0.522,86.8
SLC7A14 (GeneID 57709),6,-0.0454,81,-0.35,99.2
ADAT3 (GeneID 113179),1,-0.557,70.8,-0.822,98.3
ADAT3 (GeneID 113179),2,0.233,86.5,0.0417,95.6
ADAT3 (GeneID 113179),3,-0.053,80.8,-0.838,113
GOLGA8G (GeneID 283768),1,0.678,95.4,0.965,82.7
GOLGA8G (GeneID 283768),2,-0.244,77,0.724,71.1
GOLGA8G (GeneID 283768),3,-0.76,66.8,-0.63,88.1
MYCT1 (GeneID 80177),1,0.474,91.3,-0.278,110
MYCT1 (GeneID 80177),2,0.0241,82.4,-0.634,109
MYCT1 (GeneID 80177),3,1.79,117,1.58,86.7

A portion of the results above:
target,reagent no.,"total luciferase, z-score","total luciferase, % of control","luciferase per cell, z-score","viable cells, % of control"
TBCCD1 (GeneID 55171),1,0.4,89.8,-0.279,108
TBCCD1 (GeneID 55171),2,-0.491,72.1,-0.0741,82.2
TBCCD1 (GeneID 55171),3,-0.593,70.1,-1.33,111
SLC7A14 (GeneID 57709),1,-0.282,76.3,-0.539,98.3

Additional records:
target,reagent no.,"total luciferase, z-score","total luciferase, % of control","luciferase per cell, z-score","viable cells, % of control"
P2RX5 (GeneID 5026),1,-0.299,75.9,-1.23,117
P2RX5 (GeneID 5026),2,-0.478,72.4,-1.4,117
P2RX5 (GeneID 5026),3,-0.943,63.1,-0.321,76.8
RPS26P8 (GeneID 644191),1,-2.6,30.1,-1.69,52.5
RPS26P8 (GeneID 644191),2,0.403,89.9,0.25,94.1
RPS26P8 (GeneID 644191),3,-0.342,75.1,-1.48,124
PI4K2B (GeneID 55300),1,-1.04,61.1,-0.939,87.5
PI4K2B (GeneID 55300),2,-0.535,71.2,0.00313,79.5
PI4K2B (GeneID 55300),3,-1.2,58.1,-0.923,82.8
FAM168A (GeneID 23201),1,0.219,86.2,0.0439,95.3
FAM168A (GeneID 23201),2,1.78,117,1.5,88.2
FAM168A (GeneID 23201),3,1.18,105,0.508,103
GRAP (GeneID 10750),1,-1.25,57,-0.844,79.5
GRAP (GeneID 10750),2,0.131,84.5,-0.0419,95.5
GRAP (GeneID 10750),3,1.19,106,0.417,106
NFKBIB (GeneID 4793),1,-0.0458,81,-0.37,99.7
NFKBIB (GeneID 4793),2,1.57,113,1.5,85.1
NFKBIB (GeneID 4793),3,0.932,100,0.819,90.5
